Assay: Membrane permeability (Papp) across Caco-2 cell monolayers
Assay type: in vitro ADME
Details: human; Caco-2 monolayer, apical to basolateral; read-out: Papp (cm/s × 10^6) AP-to-BL

Structure (SMILES): CC(C)NCC(O)COc1ccc(CC(N)=O)cc1 (stereo not shown) [Atenolol, reference compound]
- Papp A→B: 1.3 ± 0.2 ×10⁻⁶ cm/s

Reference: patent publication US6770638B2, “Tetrahydroindolone and purine derivatives linked to arylpiperazines” (Spectrum Pharmaceuticals, Inc., priority 2001, dated 2004)
